# Primary screen of a compound library

Amino acid sequences for entries named in this document (tags omitted). Residues count along the entry.
UniProt P9WPC5, whole entry: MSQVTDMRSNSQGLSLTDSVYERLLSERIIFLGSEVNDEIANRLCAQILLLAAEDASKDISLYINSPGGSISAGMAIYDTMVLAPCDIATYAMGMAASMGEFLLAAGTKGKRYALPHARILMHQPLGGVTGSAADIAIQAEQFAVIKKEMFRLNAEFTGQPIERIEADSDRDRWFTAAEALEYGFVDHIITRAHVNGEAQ
UniProt P9WPC3, whole entry partner: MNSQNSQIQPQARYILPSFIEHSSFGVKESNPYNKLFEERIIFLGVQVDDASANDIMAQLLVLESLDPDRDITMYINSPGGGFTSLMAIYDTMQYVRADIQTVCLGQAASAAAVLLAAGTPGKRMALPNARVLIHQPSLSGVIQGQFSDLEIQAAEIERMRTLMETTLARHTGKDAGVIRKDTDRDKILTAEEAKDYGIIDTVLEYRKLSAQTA
UniProt I6X8D2, whole entry: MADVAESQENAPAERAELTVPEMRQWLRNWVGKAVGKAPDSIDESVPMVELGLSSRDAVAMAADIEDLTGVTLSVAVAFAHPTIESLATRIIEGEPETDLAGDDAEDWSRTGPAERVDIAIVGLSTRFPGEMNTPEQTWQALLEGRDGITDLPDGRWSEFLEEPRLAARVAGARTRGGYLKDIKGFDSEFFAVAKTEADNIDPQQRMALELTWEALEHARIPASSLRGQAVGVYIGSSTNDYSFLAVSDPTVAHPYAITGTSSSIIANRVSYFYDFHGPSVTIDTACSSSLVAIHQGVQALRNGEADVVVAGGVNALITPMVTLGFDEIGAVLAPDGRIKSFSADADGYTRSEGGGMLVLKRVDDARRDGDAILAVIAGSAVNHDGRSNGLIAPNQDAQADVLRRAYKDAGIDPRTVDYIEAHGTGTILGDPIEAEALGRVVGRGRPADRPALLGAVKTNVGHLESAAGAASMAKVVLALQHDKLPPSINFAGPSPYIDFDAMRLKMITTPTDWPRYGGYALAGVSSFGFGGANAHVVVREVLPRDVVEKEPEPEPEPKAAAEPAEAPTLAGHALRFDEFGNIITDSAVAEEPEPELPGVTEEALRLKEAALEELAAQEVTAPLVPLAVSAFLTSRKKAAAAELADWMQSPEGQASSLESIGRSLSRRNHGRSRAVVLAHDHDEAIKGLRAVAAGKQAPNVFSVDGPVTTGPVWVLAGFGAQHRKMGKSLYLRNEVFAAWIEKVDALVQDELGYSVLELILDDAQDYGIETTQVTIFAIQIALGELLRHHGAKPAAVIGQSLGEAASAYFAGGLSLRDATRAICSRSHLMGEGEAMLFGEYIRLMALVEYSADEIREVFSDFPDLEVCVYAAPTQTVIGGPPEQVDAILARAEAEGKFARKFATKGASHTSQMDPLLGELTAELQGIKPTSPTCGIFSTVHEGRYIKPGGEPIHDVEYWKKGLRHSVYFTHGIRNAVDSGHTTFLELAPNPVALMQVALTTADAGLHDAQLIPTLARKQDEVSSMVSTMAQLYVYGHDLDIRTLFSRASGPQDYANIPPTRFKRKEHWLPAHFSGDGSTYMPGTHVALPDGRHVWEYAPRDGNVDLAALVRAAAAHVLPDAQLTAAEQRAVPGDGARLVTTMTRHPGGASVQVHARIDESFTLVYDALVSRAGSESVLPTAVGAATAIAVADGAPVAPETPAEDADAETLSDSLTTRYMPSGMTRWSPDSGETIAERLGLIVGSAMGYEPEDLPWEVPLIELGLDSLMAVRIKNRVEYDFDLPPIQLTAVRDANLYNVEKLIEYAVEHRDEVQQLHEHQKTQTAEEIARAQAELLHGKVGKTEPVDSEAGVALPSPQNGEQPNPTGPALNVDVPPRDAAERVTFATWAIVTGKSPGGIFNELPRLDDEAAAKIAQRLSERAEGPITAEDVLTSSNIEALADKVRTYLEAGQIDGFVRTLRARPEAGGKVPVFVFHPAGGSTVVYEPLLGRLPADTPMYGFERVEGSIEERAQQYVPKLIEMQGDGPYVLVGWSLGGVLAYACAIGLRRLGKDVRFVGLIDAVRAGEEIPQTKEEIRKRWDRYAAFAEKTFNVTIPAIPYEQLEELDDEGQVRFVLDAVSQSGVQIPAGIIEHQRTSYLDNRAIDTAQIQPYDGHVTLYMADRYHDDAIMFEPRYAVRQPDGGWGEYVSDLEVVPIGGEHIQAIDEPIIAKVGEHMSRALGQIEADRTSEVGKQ
UniProt P9WNZ1, whole entry: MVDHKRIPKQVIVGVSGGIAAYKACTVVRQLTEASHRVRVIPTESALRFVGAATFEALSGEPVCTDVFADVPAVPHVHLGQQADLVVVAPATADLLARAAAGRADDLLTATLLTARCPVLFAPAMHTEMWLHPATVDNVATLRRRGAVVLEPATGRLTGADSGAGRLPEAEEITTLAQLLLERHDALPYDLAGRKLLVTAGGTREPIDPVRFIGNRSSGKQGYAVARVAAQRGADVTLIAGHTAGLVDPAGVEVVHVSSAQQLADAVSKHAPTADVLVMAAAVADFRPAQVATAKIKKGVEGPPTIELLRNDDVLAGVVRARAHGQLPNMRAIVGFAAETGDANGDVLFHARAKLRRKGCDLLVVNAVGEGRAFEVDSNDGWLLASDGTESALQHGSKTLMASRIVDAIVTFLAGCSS
UniProt A4I591, 1-473: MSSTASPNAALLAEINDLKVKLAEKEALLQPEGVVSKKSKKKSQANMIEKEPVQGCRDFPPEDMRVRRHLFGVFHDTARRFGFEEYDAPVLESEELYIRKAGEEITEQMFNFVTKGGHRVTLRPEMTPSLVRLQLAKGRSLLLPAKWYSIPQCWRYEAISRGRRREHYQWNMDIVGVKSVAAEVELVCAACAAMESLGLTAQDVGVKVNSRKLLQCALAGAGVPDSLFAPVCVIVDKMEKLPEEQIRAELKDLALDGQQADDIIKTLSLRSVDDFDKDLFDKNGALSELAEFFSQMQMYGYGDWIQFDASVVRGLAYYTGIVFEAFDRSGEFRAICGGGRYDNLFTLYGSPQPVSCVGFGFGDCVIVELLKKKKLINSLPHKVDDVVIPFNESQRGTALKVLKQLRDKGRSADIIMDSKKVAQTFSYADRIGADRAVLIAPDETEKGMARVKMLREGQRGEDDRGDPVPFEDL
UniProt Q4DA54, 1-478: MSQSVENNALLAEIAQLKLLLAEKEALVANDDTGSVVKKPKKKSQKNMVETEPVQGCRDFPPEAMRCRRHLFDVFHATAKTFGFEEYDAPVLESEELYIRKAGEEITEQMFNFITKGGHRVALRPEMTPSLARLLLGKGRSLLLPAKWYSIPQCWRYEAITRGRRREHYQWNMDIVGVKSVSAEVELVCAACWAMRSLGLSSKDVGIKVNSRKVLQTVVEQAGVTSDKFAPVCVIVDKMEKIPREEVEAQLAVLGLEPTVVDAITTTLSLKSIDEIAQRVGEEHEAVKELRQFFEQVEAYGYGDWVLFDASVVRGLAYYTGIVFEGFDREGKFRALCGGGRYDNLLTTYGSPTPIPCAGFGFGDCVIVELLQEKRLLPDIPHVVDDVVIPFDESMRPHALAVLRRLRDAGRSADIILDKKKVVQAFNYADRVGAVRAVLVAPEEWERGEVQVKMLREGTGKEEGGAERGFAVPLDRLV

Source: ChEMBL document CHEMBL3988442, “University of Dundee, Small-Polar-MMV Screening Library” (2021).

ClpP1P2: 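Protease assay of ClpP1P2, read by the AMC dye that it sets free. Target: ClpP1P2, Mycobacterium tuberculosis (UniProt P9WPC5 and UniProt P9WPC3). Compounds at 50 µM. Direction is inferred from only a few compounds that gave an IC50; most scored high, so higher reads as stronger inhibition. Most other retested compounds had strongly negative values. Of about 69,000 compounds tested this way, about 10 (0.015%) reached 50% or more in at least one test.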
Pks13 thioesterase: 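Enzyme assay of the thioesterase domain of polyketide synthase 13; the read-out is not stated. Target: Polyketide synthase Pks13, Mycobacterium tuberculosis (UniProt I6X8D2). Concentration: 30 µM. The record gives no direction; the compounds picked for IC50 retests had high values, so higher reads as stronger inhibition. About 67,000 compounds were tested under these conditions; 0.46% (about 300) showed 50% or more at least once.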
CoaBC: 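Coenzyme A biosynthesis protein CoaBC, Mycobacterium tuberculosis (UniProt P9WNZ1). Enzyme assay of CoaBC with a phosphate dye (Biomol Green) read at 650 nm. Concentration: 30 µM. Direction is inferred from only a few compounds that gave an IC50; most scored high, so higher reads as stronger inhibition. Most strong results did not repeat in a second test. About 67,000 compounds were tested under these conditions; 0.06% (about 40) showed 50% or more at least once.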
LiHisRS: 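Histidine-tRNA ligase, Leishmania infantum (UniProt A4I591). Enzyme assay of histidyl-tRNA synthetase; the read-out is not stated. Tested at 30 µM. The record gives no direction; compounds that gave an IC50 in retests scored well above the rest, so higher reads as stronger inhibition. The assay is labelled LdHisRS but filed under L. infantum. Of about 69,000 compounds tested this way, about 410 (0.6%) reached 50% or more in at least one test.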
TcHisRS: 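Enzyme assay of histidyl-tRNA synthetase; the read-out is not stated. Target: Histidine-tRNA ligase, Trypanosoma cruzi CL Brener (UniProt Q4DA54). Concentration: 30 µM. Higher reads as stronger inhibition (inferred: compounds with an IC50 in retests scored well above the rest). Size under these conditions: about 69,000 compounds, about 31 of them at 50% or above in at least one test.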

Results are given as percent effect. The record does not define 0% and 100%; most values in the screen are far below 50% and negative numbers occur (in some assays of this library far below -100). This is an unselected part of the compounds tested. A dash means the value is not listed here; it may have been measured.

structure | ClpP1P2 | Pks13 thioesterase | CoaBC | LiHisRS | TcHisRS
COc1ccc(NC(=O)NCc2ccnc(N(C)C)c2)cn1 | -4.977% | -34.92% | -1.842% | -4.63% | -0.2933%
CCCN1CCC(CC(=O)N2CCC(C(O)c3nccn3C)CC2)CC1 (stereo not drawn) | -7.918% | -19.1% | 7.901% | 5.594% | 10.45%
Cc1cnn(C2CCCN(C(=O)c3ccc(-n4cccn4)nc3)C2)c1 (stereo not drawn) | -6.783% | 15.48% | 1.677% | 5.217% | -1.724%
CC(C)(C)C(=O)N1CC(=O)N(Cc2ccco2)CC(O)C1 (stereo not drawn) | 3.89% | - | 1.695% | 16.33% | 7.865%
Brc1ccc(C2(CNCc3cc[nH]c3)CCOCC2)cc1 | -3.633% | -20.59% | - | 52.11% | 3.185%
Cc1ccoc1C(=O)N1CCc2ccc(=O)n(CCN(C)C)c2CC1 | -12.75% | -22.09% | 0.7407% | 11.11% | 4.673%
Cc1cnc(NC(=O)N2CCCCCC2)s1 | -1.56% | -32.96% | 0.9862% | 12.12% | 5.291%
CCCc1nnc(NC2CCN(CCO)CC2)o1 | -5.896% | -42.94% | - | 12.5% | 5.263%
Cc1nnc(C(C)Nc2ccc(OCCc3ccccc3)nc2)o1 (stereo not drawn) | 3.364% | -6.292% | 2.805% | 15.38% | 13.86%
O=C(c1cccnc1Oc1ccc(Cl)cc1)N1CC[C@@H](O)C1 | 8.022% | 2.211% | -0.2427% | 15.84% | -1.136%
CC(C)CCN1N=C(C(=O)N2CCCCCC2)S(=O)(=O)c2ccccc21 | 2.364% | -37.07% | 1.129% | 10.17% | 6.341%
CCCC(C)N(C)Cc1nnc(-c2ccco2)o1 (stereo not drawn) | 1.173% | 0.03289% | 2.314% | 18.28% | 13.69%
O=C(CCc1ccsc1)NCC1CCN(Cc2cccs2)CC1 | -7.236% | -30.39% | -8.974% | 31.51% | 5.911%
CC(NC(=O)NCC1(O)CCC1)c1ccc(OCC2CC2)c(F)c1 (stereo not drawn) | -4.948% | -29.96% | -0.4049% | 11.43% | 3.261%
Cc1nc(C2CCCN2CCc2ccccn2)no1 (stereo not drawn) | 11.84% | -27.38% | -0.216% | 17.14% | 3.061%
Cc1c[nH]c(CN(C)C(=O)[C@]23CNC[C@H]2CNC3)n1 | -4.218% | -45.83% | 3.676% | 13.92% | 0.431%
COCCn1ccnc1CN1CCc2[nH]cnc2C1c1cnn(C)c1C (stereo not drawn) | -12.8% | -2.543% | 2.795% | 19.57% | 4.95%
COCCCN(C)C1CCCN(Cc2noc(C3CC3)n2)C1 (stereo not drawn) | 8.169% | -19.6% | 0.7653% | 14.55% | 0.5848%
COc1ccccc1C(=O)N1CC(Cc2nccc3ccn(C)c23)C1 | -1.174% | -38.93% | -4.722% | 19.44% | 3.784%
COc1ccc(C2Nc3cc(Cl)ccc3C3=NCCN32)cc1O (stereo not drawn) | -10.3% | -8.183% | 0.6196% | 6% | 0%
Cc1cc(C)n(CC(C)NC2CCN(Cc3cccnc3)CC2)n1 (stereo not drawn) | -1.462% | -31.28% | 1.799% | 8.333% | 4.469%
Cc1cc(C)nc(C2CCCN2C(=O)c2cnccn2)n1 (stereo not drawn) | -12.19% | 3.981% | 5.701% | 12.68% | 8.462%
O=C1CCC(CCC(=O)N2CCCC2c2nccs2)=NN1 (stereo not drawn) | 17.57% | -14.5% | -3.444% | 20.41% | 2.051%
CC(C)N(C)Cc1cnc2n1CCN(S(=O)(=O)c1ccccc1)C2 | 18.44% | -3.024% | -4.875% | 12.33% | 5%
CCc1nc(C2CCCN2C(=O)c2csc(COC)n2)no1 (stereo not drawn) | -5.702% | -16.04% | 1.305% | -1.724% | -10.17%
Cc1noc(C)c1-c1cc(CC2CCN(C(=O)c3cc[nH]n3)C2)ncn1 (stereo not drawn) | 14.09% | -6.8% | 1.695% | 10.31% | 14.44%
Cn1cc(C(=O)N2CCC(c3ncc[nH]3)CC2)cn1 | 1.783% | -24.81% | 3.951% | 8.392% | 10.45%
O=C(CCNC(=O)C1CCCC1)NCc1ccccc1Cn1ccnc1 | -12.06% | -26.81% | 1.956% | 14.91% | 5.202%
CSCCC(=O)N1CCCC1c1ccsc1 (stereo not drawn) | 11.48% | -0.4076% | -2.954% | 10.58% | 1.626%
COCCN1C[C@H]2[C@@H](C1)N(C(=O)c1cccc(OC)c1)CC[C@H]2OC | 4.04% | -10.6% | 12.95% | 13.27% | 5.6%
N#Cc1ccc(C(=O)N2CC(c3nc(-c4ncccn4)no3)C2)cc1 | 7.773% | -42.71% | 6.554% | 12.17% | 4.124%
O=C(NC1CCC1)[C@@H]1C[C@@H]2CCN(Cc3ccncc3)C[C@H]2O1 | 4.488% | -18.55% | 4.695% | 20.75% | 1.622%
CN(C)c1nc(NCCc2cnccn2)ncc1F | -10.44% | -9.835% | 1.077% | 11.48% | 3.004%
CN1CCN(c2ccc(C(=O)N3CCCC(c4ncc[nH]4)C3)cc2)CC1 (stereo not drawn) | -2.389% | -24.05% | 2.056% | 14.52% | 3.247%

Some entries from above, unchanged:

structure	ClpP1P2	Pks13 thioesterase	CoaBC	LiHisRS	TcHisRS
Cc1cnn(C2CCCN(C(=O)c3ccc(-n4cccn4)nc3)C2)c1 (stereo not drawn)	-6.783%	15.48%	1.677%	5.217%	-1.724%
CC(NC(=O)NCC1(O)CCC1)c1ccc(OCC2CC2)c(F)c1 (stereo not drawn)	-4.948%	-29.96%	-0.4049%	11.43%	3.261%
O=C(CCc1ccsc1)NCC1CCN(Cc2cccs2)CC1	-7.236%	-30.39%	-8.974%	31.51%	5.911%